Test results: patent US20220220218A1 (JIANGSU HENGRUI MEDICINE, published 2022)
No constants are given. Whether binding was seen depends on the method and setting. Some binding calls cover weakened binding; strength is not graded here.

Columns and labels:
[1] = target: cynomolgus monkey CD73/NT5E protein (His tag), Sino Biological Cat. No. 90192-C08H (cynomolgus monkey); assay: ELISA; cynomolgus monkey CD73 coated on plate
[2] = target: cynomolgus monkey CD73/NT5E protein (His tag), Sino Biological Cat. No. 90192-C08H (cynomolgus monkey); assay: SPR Biacore T200
[3] = target: T1, human CD73 (huCD73) protein, antigen of the Biacore assay (human) (UniProt P21589); assay: SPR Biacore T200
T1 sequence (looked up): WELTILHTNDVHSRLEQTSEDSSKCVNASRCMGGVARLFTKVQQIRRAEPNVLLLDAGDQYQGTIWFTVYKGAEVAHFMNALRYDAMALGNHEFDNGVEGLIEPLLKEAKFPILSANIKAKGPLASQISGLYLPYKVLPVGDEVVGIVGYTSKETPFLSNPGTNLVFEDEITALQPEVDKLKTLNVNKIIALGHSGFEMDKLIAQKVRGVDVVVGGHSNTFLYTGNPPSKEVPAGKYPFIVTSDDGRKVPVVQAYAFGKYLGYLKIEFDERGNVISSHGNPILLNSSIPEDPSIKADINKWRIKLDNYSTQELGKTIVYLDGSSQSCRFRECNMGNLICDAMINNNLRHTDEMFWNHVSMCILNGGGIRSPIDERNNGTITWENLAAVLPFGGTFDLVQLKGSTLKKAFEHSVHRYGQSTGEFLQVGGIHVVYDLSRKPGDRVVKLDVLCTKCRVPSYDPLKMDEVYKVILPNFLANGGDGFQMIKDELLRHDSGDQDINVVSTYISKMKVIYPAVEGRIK

Measured: binding

B1: Hab110.21 (antibody, human IgG1, kappa, V domains shown)
VH: EVQLVQSGAEVKKPGASVKVSCKASGYTFTSYTMHWVRQAPGQRLEWMGYINPNSFYIEYNQKFKDRVTITRDTSASTAYMELSSLRSEDTAVYYCARGDYDLFYDMDNWGQGTTVTVSS
VL: DIQMTQSPSSLSASVGDRVTITCRASQDIGNSLNWLQQKPGKAIKRLIYATFRLDSGVPSRFSGSRSGTEYTLTISSLQPEDFATYYCQQYASFPWTFGGGTKVEIKR
notes: also called humanized antibody of mab110
binds: [1] | [2] | [3]

B2: Hab127.31d (antibody, human IgG1, kappa, V domains shown)
VH: EVQLVQSGAEVKKPGASVKVSCKASGYTFTAYFMNWVRQAPGQGLEWMGRIYHNKGDTFYSQKFKGRVTMTVDKSTSTVYMELSSLRSEDTAVYYCATSYVGDWGQGTTVTVSS
VL: DIQMTQSPSSLSASVGDRVTITCRASQDIGDSLNWLQQKPGGALKRLIYATSSLDSGVPSRFSGSGSGTEYTLTISSLQPEDFATYYCLQYASFPWTFGGGTKVEIKR
notes: also called humanized antibody of mab127
binds: [1] | [2] | [3]

B3: Hab108.64 (antibody, human IgG1, kappa, V domains shown)
VH: EVTLKQSGPGLVKPTETLTLTCTVSGFSLSSYGIQWVRQPPGKGLEWLGVIWSGGSADYNAAFISRLTISKDTSKSQVVLTMTNMDPVDTATYYCAGQYGSVWGQGTLVTVSS
VL: DIQMTQSPSSLSASVGDRVTITCRASQDIGDRLNWLQQKPGGAIKRLIYATSSLDSGVPKRFSGSGSGTEYTLTISSLQPEDFATYYCLQYAGSWTFGGGTKVEIKR
notes: also called humanized antibody of mab108
binds: [1] | [2] | [3]
